According to the supplement of paper PMC12823440, “Inhibitors supercharge kinase turnover through native proteolytic circuits” (Nature, 2025):
Structures can show the parent of a compound that is named as a salt. Some of the results follow. Hit calls seldom repeat between salt and free forms of one compound.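 Kinases were expressed as nanoluciferase fusions in K562 cells and luminescence was read every 4 h between 2 and 18 h as percent of control, DMSO set to 100% and a positive control to 0%. A time point counts as decreased when the signal drops significantly (2 sigma). The hit call is the authors' own, does not follow from the count of time points alone, and its rule is not shown.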

Sequences of proteins named here, by UniProt entry; tags and fusion partners are left off. A change or cut given only in a name is not applied to a line headed by its entry.
UniProt Q08345: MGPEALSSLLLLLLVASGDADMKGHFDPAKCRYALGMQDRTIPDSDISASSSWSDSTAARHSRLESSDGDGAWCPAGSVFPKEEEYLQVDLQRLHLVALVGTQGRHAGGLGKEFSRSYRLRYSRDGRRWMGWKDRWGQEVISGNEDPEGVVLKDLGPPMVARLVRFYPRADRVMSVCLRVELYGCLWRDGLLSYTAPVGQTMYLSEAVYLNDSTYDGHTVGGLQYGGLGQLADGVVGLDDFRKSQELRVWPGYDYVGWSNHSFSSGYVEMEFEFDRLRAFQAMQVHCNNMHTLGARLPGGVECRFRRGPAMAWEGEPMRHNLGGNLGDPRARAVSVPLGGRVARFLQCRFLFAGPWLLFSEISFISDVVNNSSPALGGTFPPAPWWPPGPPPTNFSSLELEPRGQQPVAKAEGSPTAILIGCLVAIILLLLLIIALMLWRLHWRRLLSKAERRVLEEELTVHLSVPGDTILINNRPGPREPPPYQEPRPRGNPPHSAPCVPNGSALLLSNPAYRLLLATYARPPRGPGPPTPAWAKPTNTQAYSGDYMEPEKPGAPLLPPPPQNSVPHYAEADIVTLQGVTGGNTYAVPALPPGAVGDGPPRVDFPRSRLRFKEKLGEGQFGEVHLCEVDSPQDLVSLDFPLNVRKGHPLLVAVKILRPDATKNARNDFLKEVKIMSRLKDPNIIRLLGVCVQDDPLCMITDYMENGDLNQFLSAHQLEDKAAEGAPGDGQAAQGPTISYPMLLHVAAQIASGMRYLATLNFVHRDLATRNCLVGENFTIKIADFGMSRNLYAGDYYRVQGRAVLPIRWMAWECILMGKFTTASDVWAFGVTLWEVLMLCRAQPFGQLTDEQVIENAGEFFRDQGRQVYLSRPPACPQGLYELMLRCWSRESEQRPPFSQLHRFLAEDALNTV

target: DDR1 (UniProt Q08345); assay: number of time points (of 5) at which kinase-Nluc abundance scored as decreased, DMSO-normalised (count); higher = more persistent destabilization; conditions: K562; 2-18 h

N#Cc1ccc2[nH]c(O)c(-c3ccc(CN4CCOCC4)cn3)c2c1 (10 µM) and O=c1cc(N2CCOCC2)oc2c(-c3ccccc3)cccc12 (10 µM) are the same in “number of time points” value: 0 for the first, 0 for the second.

First: CCN(CC)CCCCNc1ncc2cc(-c3cc(OC)cc(OC)c3)c(NC(=O)NC(C)(C)C)nc2n1 (10 µM)
Second: CCN(CC)CCCCNc1ncc2cc(-c3c(Cl)cccc3Cl)c(NC(=O)NC(C)(C)C)nc2n1 (2.5 µM)
The “number of time points” value of the first is lower: 0 for the first, 3 for the second.

Oc1ccc(-c2nc(-c3ccc(F)cc3)c(-c3ccncc3)[nH]2)cc1 (2.5 µM) and COc1nccc(-c2c(-c3ccc(F)cc3)ncn2C2CCC(O)CC2)n1 (centres undefined) (10 µM) are the same in “number of time points” value: 0 for the first, 0 for the second.

O=C1NCCc2[nH]c(-c3ccnc(-c4cnc5ccccc5c4)c3)cc21 (10 µM) and C[C@]1(O)C[C@@H](c2nc(-c3ccc4ccc(-c5ccccc5)nc4c3)c3c(N)nccn32)C1 [Linsitinib] (2.5 µM) are the same in “number of time points” value: 0 for the first, 0 for the second.

First: Cc1cc(N2CCOCC2)cc2[nH]c(-c3c(NC[C@@H](O)c4cccc(Cl)c4)cc[nH]c3=O)nc12 (10 µM)
Second: Cc1c(Cn2c(C)nc3c(C(=O)O)cc(N4CCOCC4)cc32)cccc1C(F)(F)F (10 µM)
The “number of time points” value of the first is higher: 3 for the first, 0 for the second.

COc1cc(OC)cc(-c2cc3cnc(N)nc3nc2NC(=O)NC(C)(C)C)c1 (10 µM) and COc1cc2nc(C)nc(N[C@H](C)c3cc(N)cc(C(F)(F)F)c3)c2cc1O[C@H]1CCOC1 (10 µM) are the same in “number of time points” value: 0 for the first, 0 for the second.

Cc1ccc(NC(=O)Nc2nnc(Sc3ncnc4cc(OCCCN5CCOCC5)ccc34)s2)cc1 (10 µM) and CCN(CCO)CCCOc1ccc2c(Nc3cc(CC(=O)Nc4cccc(F)c4)[nH]n3)ncnc2c1 [Barasertib-HQPA] (10 µM) are the same in “number of time points” value: 0 for the first, 0 for the second.

N#C/C(=C\c1ccc(O)c(O)c1)C(=O)NCCCc1ccccc1 (10 µM) and N#C/C(=C\c1ccc(O)c(O)c1)C(=O)NCc1ccccc1 (10 µM) are the same in “number of time points” value: 0 for the first, 0 for the second.

Cc1cccc([C@@H](CO)NC(=O)[C@@H](C)N2Cc3ccc(-c4nc(NC5CCOCC5)ncc4Cl)cc3C2=O)c1 [ERK1/2 inhibitor 1] (10 µM) and Cn1c(=O)c(Oc2ccc(F)cc2F)cc2cnc(NC3CCOCC3)nc21 [R1487 (Hydrochloride)] (10 µM) are the same in “number of time points” value: 0 for the first, 0 for the second.

First: CCOc1ccn(-c2ccc(F)cc2)c(=O)c1C(=O)Nc1ccc(Oc2ccnc(N)c2Cl)c(F)c1 (10 µM)
Second: Cc1c[nH]c2nccc(Oc3c(F)cc(Nc4cc(Cl)nc(N)n4)cc3F)c12 (10 µM)
The “number of time points” value of the first is higher: 1 for the first, 0 for the second.

O=c1oc2c(O)c(O)cc3c(=O)oc4c(O)c(O)cc1c4c23 [Ellagic acid] (10 µM) and O=c1c(O)c(-c2ccc(O)c(O)c2)oc2cc(O)cc(O)c12 [Quercetin (dihydrate)] (10 µM) are the same in “number of time points” value: 0 for the first, 0 for the second.

Compared with C=CC(=O)Nc1ccc2ncnc(Nc3cccc(Br)c3)c2c1 (10 µM), COc1cc2c(Nc3ccc(Br)cc3F)ncnc2cc1OCCn1ccnn1 (10 µM) is lower in “number of time points” value: 1 for the first, 0 for the second.

Compared with CC(C)CC(=O)Nc1n[nH]c2c1CN(C(=O)C1CCN(C)CC1)C2(C)C (2.5 µM), COc1cc(C)c(Sc2cnc(NC(=O)c3ccc(CNC(C)C(C)(C)C)cc3)s2)cc1C(=O)N1CCN(C(C)=O)CC1 (centres undefined) (2.5 µM) is lower in “number of time points” value: 1 for the first, 0 for the second.

O=c1c(-c2ccc(O)cc2)coc2cc(O)cc(O)c12 [Genistein] (10 µM) and COc1c(CC=C(C)C)c(O)cc2oc(=O)c(-c3ccc(O)cc3O)cc12 [Glycycoumarin] (10 µM) are the same in “number of time points” value: 0 for the first, 0 for the second.

CCOc1cc2ncc(C#N)c(Nc3ccc(OCc4ccccn4)c(Cl)c3)c2cc1NC(=O)/C=C/CN(C)C [Neratinib] (10 µM) and CCN1CCN(c2ccc(Nc3cc(N(C)C(=O)Nc4c(Cl)c(OC)cc(OC)c4Cl)ncn3)cc2)CC1 [Infigratinib] (10 µM) are the same in “number of time points” value: 0 for the first, 0 for the second.

CN1CCC(Nc2ncc3ncnc(Nc4ccc(F)c(Cl)c4)c3n2)CC1 [Falnidamol] (10 µM) and Cc1cc(F)c(C(=O)Nc2cccc(-c3nncn3C(C)C)n2)cc1-n1cnc(C2CC2)c1 [Selonsertib] (10 µM) are the same in “number of time points” value: 0 for the first, 0 for the second.

Going from COc1ccc(C=C(C#N)c2cccnc2)cc1OC (10 µM) to COc1cc(C=C(C#N)C(N)=O)cc(CSc2nc3ccccc3s2)c1O (10 µM), the “number of time points” value rises from 0 to 1.

Nc1ncnc2c1c(-c1ccc(Oc3ccccc3)cc1)cn2C1CCCC1 (2.5 µM) and CNc1nc(-c2ccc3c(N)n[nH]c3c2)cc(N2C[C@@H](C(=O)NC3CCCCC3)CC[C@H]2C)n1 (10 µM) are the same in “number of time points” value: 0 for the first, 0 for the second.

N#CC(=Cc1ccc(O)c(O)c1)C(=O)NCc1ccccc1 (mixture of isomers) (10 µM) and Cc1cc(C(=O)Nc2cccc(C(=O)Nc3cccc(C(F)(F)F)c3)c2)on1 (10 µM) are the same in “number of time points” value: 0 for the first, 0 for the second.

O=C1Cc2c([nH]c3ccc(Br)cc23)-c2ncccc2N1 [1-Azakenpaullone] (10 µM) was tested, and the “number of time points” value was 0.
